Measurements reported in article doi:10.1101/2021.09.23.461563.

Biological target: GST-ErpQ (Borrelia burgdorferi strain B31)
Test: SPR

B1: C1s enzyme (activated form of human C1s) (enzyme, UniProt P09871 16-437; P09871 438-688)
chain 1: EPTMYGEILSPNYPQAYPSEVEKSWDIEVPEGYGIHLYFTHLDIELSENCAYDSVQIISGDTEEGRLCGQRSSNNPHSPIVEEFQVPYNKLQVIFKSDFSNEERFTGFAAYYVATDINECTDFVDVPCSHFCNNFIGGYFCSCPPEYFLHDDMKNCGVNCSGDVFTALIGEIASPNYPKPYPENSRCEYQIRLEKGFQVVVTLRREDFDVEAADSAGNCLDSLVFVAGDRQFGPYCGHGFPGPLNIETKSNALDIIFQTDLTGQKKGWKLRYHGDPMPCPKEDTPNSVWEPAKAKYVFRDVVQITCLDGFEVVEGRVGATSFYSTCQSNGKWSNSKLKCQPVDCGIPESIENGKVEDPESTLFGSVIRYTCEEPYYYMENGGGGEYHCAGNGSWVNEVLGPELPKCVPVCGVPREPFEEKQR
chain 2: IIGGSDADIKNFPWQVFFDNPWAGGALINEYWVLTAAHVVEGNREPTMYVGSTSVQTSRLAKSKMLTPEHVFIHPGWKLLEVPEGRTNFDNDIALVRLKDPVKMGPTVSPICLPGTSSDYNLMDGDLGLISGWGRTEKRDRAVRLKAARLPVAPLRKCKEVKVEKPTADAEAYVFTPNMICAGGEKGMDSCKGDSGGAFAVQDPNDKTKFYAAGLVSWGPQCGTYGLYTRVKNYVDWIMKTMQENSTPRED
Question: Which binding does the source give for B1 here?
Answer: binds

No constants are given. Whether binding was seen depends on the method and setting. A result given as binding can be weak or reduced; the word gives no strength.
